Taken from: PubChem BioAssay AID1224830 (NIAID, 2016)

Screen: 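Host factors that control LPS-induced TNF expression in human macrophages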 (primary screen)
Cell system: human THP-1 monocytic leukaemia cells, TNF dual-luciferase reporter clone, PMA-differentiated to macrophage-like cells
Reagent: siRNA pool against human genes, 50 nM
Time to read-out: LPS for 4 h, given about 3 days after siRNA transfection
Challenge: bacterial LPS (TLR4 ligand), 10 ng/ml
Read-out: 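TNF firefly reporter luminescence divided by renilla, normalised to the plate median, then turned into a robust z-score for each replicate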
Direction: TNF reporter robust z-score: higher = stronger TNF reporter response to LPS
Rule for the call: 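Each well counts as active if its z-score is over 2.8 or under -1.5; controls are left without a call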
This is a random part of about 18,000 reagents. About 2,900 of all reagents (16%) count as active. 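Calls are made per well; low scores hint the gene aids the LPS response, high scores that it dampens it.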 Repeated entries: four replicate wells of each siRNA pool. No sequences are given here.

no.	Target gene	PubChem SID	TNF reporter robust z-score	call
1	TBPL1 (TATA-box binding protein like 1)	SID315453349	-0.6	inactive
2	TBPL1 (TATA-box binding protein like 1)	SID315453349	-1.25	inactive
3	TBPL1 (TATA-box binding protein like 1)	SID315453349	-0.72	inactive
4	TBPL1 (TATA-box binding protein like 1)	SID315453349	-0.59	inactive
5	ZNF570 (zinc finger protein 570)	SID315462374	-0.83	inactive
6	ZNF570 (zinc finger protein 570)	SID315462374	-0.63	inactive
7	ZNF570 (zinc finger protein 570)	SID315462374	0.19	inactive
8	ZNF570 (zinc finger protein 570)	SID315462374	0.23	inactive
9	MAOB (monoamine oxidase B)	SID315449877	0.95	inactive
10	MAOB (monoamine oxidase B)	SID315449877	1.33	inactive
11	MAOB (monoamine oxidase B)	SID315449877	1.4	inactive
12	MAOB (monoamine oxidase B)	SID315449877	2.02	inactive
13	FBXO30 (F-box protein 30)	SID315460188	-2.06	active
14	FBXO30 (F-box protein 30)	SID315460188	-1.47	inactive
15	FBXO30 (F-box protein 30)	SID315460188	-1.38	inactive
16	FBXO30 (F-box protein 30)	SID315460188	-0.41	inactive
17	STMN4 (stathmin 4)	SID315459883	0.48	inactive
18	STMN4 (stathmin 4)	SID315459883	-0.42	inactive
19	STMN4 (stathmin 4)	SID315459883	2.5	inactive
20	STMN4 (stathmin 4)	SID315459883	1.5	inactive
21	TPCN2 (two pore segment channel 2)	SID315463212	0.15	inactive
22	TPCN2 (two pore segment channel 2)	SID315463212	1.3	inactive
23	TPCN2 (two pore segment channel 2)	SID315463212	0.37	inactive
24	TPCN2 (two pore segment channel 2)	SID315463212	0.33	inactive
25	NEK5 (NIMA related kinase 5)	SID315464123	-0.35	inactive
26	NEK5 (NIMA related kinase 5)	SID315464123	1.01	inactive
27	NEK5 (NIMA related kinase 5)	SID315464123	1.88	inactive
28	NEK5 (NIMA related kinase 5)	SID315464123	2.2	inactive
29	SLC45A1	SID315456347	0.23	inactive
30	SLC45A1	SID315456347	-0.08	inactive
31	SLC45A1	SID315456347	-0.5	inactive
32	SLC45A1	SID315456347	-0.62	inactive
33	HLA-DRB3 (major histocompatibility complex, class II, DR beta 3)	SID315449215	0.12	inactive
34	HLA-DRB3 (major histocompatibility complex, class II, DR beta 3)	SID315449215	1.27	inactive
35	HLA-DRB3 (major histocompatibility complex, class II, DR beta 3)	SID315449215	-0.02	inactive
36	HLA-DRB3 (major histocompatibility complex, class II, DR beta 3)	SID315449215	-0.59	inactive
37	MAF1 (MAF1 negative regulator of RNA polymerase III)	SID315460254	-0.96	inactive
38	MAF1 (MAF1 negative regulator of RNA polymerase III)	SID315460254	-0.99	inactive
39	MAF1 (MAF1 negative regulator of RNA polymerase III)	SID315460254	-0.9	inactive
40	MAF1 (MAF1 negative regulator of RNA polymerase III)	SID315460254	0.23	inactive
41	OR2V2 (olfactory receptor family 2 subfamily V member 2)	SID315463868	-0.89	inactive
42	OR2V2 (olfactory receptor family 2 subfamily V member 2)	SID315463868	1.51	inactive
43	OR2V2 (olfactory receptor family 2 subfamily V member 2)	SID315463868	-0.9	inactive
44	OR2V2 (olfactory receptor family 2 subfamily V member 2)	SID315463868	3.28	active
45	DEXI (Dexi homolog)	SID315456074	0.1	inactive
46	DEXI (Dexi homolog)	SID315456074	-0.45	inactive
47	DEXI (Dexi homolog)	SID315456074	0.01	inactive
48	DEXI (Dexi homolog)	SID315456074	0.61	inactive
49	ZSWIM2 (zinc finger SWIM-type containing 2)	SID315462477	-0.15	inactive
50	ZSWIM2 (zinc finger SWIM-type containing 2)	SID315462477	0.37	inactive
51	ZSWIM2 (zinc finger SWIM-type containing 2)	SID315462477	1.45	inactive
52	ZSWIM2 (zinc finger SWIM-type containing 2)	SID315462477	-0.11	inactive
53	MAST1 (microtubule associated serine/threonine kinase 1)	SID315454909	-1.18	inactive
54	MAST1 (microtubule associated serine/threonine kinase 1)	SID315454909	0.27	inactive
55	MAST1 (microtubule associated serine/threonine kinase 1)	SID315454909	-0.87	inactive
56	MAST1 (microtubule associated serine/threonine kinase 1)	SID315454909	0.04	inactive
57	SCN10A (sodium voltage-gated channel alpha subunit 10)	SID315451318	-0.67	inactive
58	SCN10A (sodium voltage-gated channel alpha subunit 10)	SID315451318	-0.31	inactive
59	SCN10A (sodium voltage-gated channel alpha subunit 10)	SID315451318	0.7	inactive
60	SCN10A (sodium voltage-gated channel alpha subunit 10)	SID315451318	0.41	inactive

Quoted from above (17 entries):
no.	Target gene	PubChem SID	TNF reporter robust z-score	call
8	ZNF570 (zinc finger protein 570)	SID315462374	0.23	inactive
9	MAOB (monoamine oxidase B)	SID315449877	0.95	inactive
10	MAOB (monoamine oxidase B)	SID315449877	1.33	inactive
11	MAOB (monoamine oxidase B)	SID315449877	1.4	inactive
12	MAOB (monoamine oxidase B)	SID315449877	2.02	inactive
13	FBXO30 (F-box protein 30)	SID315460188	-2.06	active
14	FBXO30 (F-box protein 30)	SID315460188	-1.47	inactive
15	FBXO30 (F-box protein 30)	SID315460188	-1.38	inactive
16	FBXO30 (F-box protein 30)	SID315460188	-0.41	inactive
17	STMN4 (stathmin 4)	SID315459883	0.48	inactive
18	STMN4 (stathmin 4)	SID315459883	-0.42	inactive
19	STMN4 (stathmin 4)	SID315459883	2.5	inactive
20	STMN4 (stathmin 4)	SID315459883	1.5	inactive
21	TPCN2 (two pore segment channel 2)	SID315463212	0.15	inactive
22	TPCN2 (two pore segment channel 2)	SID315463212	1.3	inactive
23	TPCN2 (two pore segment channel 2)	SID315463212	0.37	inactive
24	TPCN2 (two pore segment channel 2)	SID315463212	0.33	inactive

Next records:
no.	Target gene	PubChem SID	TNF reporter robust z-score	call
61	SLC18A3	SID315451506	-0.17	inactive
62	SLC18A3	SID315451506	0.14	inactive
63	SLC18A3	SID315451506	0	inactive
64	SLC18A3	SID315451506	0.99	inactive
65	SLC45A4	SID315458334	1.29	inactive
66	SLC45A4	SID315458334	0.86	inactive
67	SLC45A4	SID315458334	1.43	inactive
68	SLC45A4	SID315458334	1.16	inactive
69	RB1CC1 (RB1 inducible coiled-coil 1)	SID315453594	0.36	inactive
70	RB1CC1 (RB1 inducible coiled-coil 1)	SID315453594	-0.28	inactive
71	RB1CC1 (RB1 inducible coiled-coil 1)	SID315453594	0.07	inactive
72	RB1CC1 (RB1 inducible coiled-coil 1)	SID315453594	0.16	inactive
73	PMCH (pro-melanin concentrating hormone)	SID315450657	1.08	inactive
74	PMCH (pro-melanin concentrating hormone)	SID315450657	1.78	inactive
75	PMCH (pro-melanin concentrating hormone)	SID315450657	0.98	inactive
76	PMCH (pro-melanin concentrating hormone)	SID315450657	1.94	inactive
77	MMP17 (matrix metallopeptidase 17)	SID315450011	-0.65	inactive
78	MMP17 (matrix metallopeptidase 17)	SID315450011	0.06	inactive
79	MMP17 (matrix metallopeptidase 17)	SID315450011	-0.27	inactive
80	MMP17 (matrix metallopeptidase 17)	SID315450011	0.82	inactive
81	PHF20 (PHD finger protein 20)	SID315456568	-1.44	inactive
82	PHF20 (PHD finger protein 20)	SID315456568	0.02	inactive
83	PHF20 (PHD finger protein 20)	SID315456568	-2.32	active
84	PHF20 (PHD finger protein 20)	SID315456568	0.18	inactive
85	IRF2BPL (interferon regulatory factor 2 binding protein like)	SID315458863	0.22	inactive
86	IRF2BPL (interferon regulatory factor 2 binding protein like)	SID315458863	0.78	inactive
87	IRF2BPL (interferon regulatory factor 2 binding protein like)	SID315458863	0.23	inactive
88	IRF2BPL (interferon regulatory factor 2 binding protein like)	SID315458863	-0.47	inactive
89	CRIPAK (retired record)	SID315463851	1.1	inactive
90	CRIPAK (retired record)	SID315463851	1.96	inactive
91	CRIPAK (retired record)	SID315463851	0.89	inactive
92	CRIPAK (retired record)	SID315463851	1.3	inactive
93	HEATR4 (HEAT repeat containing 4)	SID315464716	5.14	active
94	HEATR4 (HEAT repeat containing 4)	SID315464716	5.06	active
95	HEATR4 (HEAT repeat containing 4)	SID315464716	3.59	active
96	HEATR4 (HEAT repeat containing 4)	SID315464716	4.91	active
97	MAPDA (N6-Methyl-AMP deaminase)	SID315462734	0.74	inactive
98	MAPDA (N6-Methyl-AMP deaminase)	SID315462734	0.53	inactive
99	MAPDA (N6-Methyl-AMP deaminase)	SID315462734	1.69	inactive
100	MAPDA (N6-Methyl-AMP deaminase)	SID315462734	1.1	inactive
101	CLCN4 (Cl-/H+ antiporter 4)	SID315447958	0.29	inactive
102	CLCN4 (Cl-/H+ antiporter 4)	SID315447958	0.95	inactive
103	CLCN4 (Cl-/H+ antiporter 4)	SID315447958	-0.03	inactive
104	CLCN4 (Cl-/H+ antiporter 4)	SID315447958	2.97	active
105	ZNF420 (zinc finger protein 420)	SID315462349	0.23	inactive
106	ZNF420 (zinc finger protein 420)	SID315462349	-0.52	inactive
107	ZNF420 (zinc finger protein 420)	SID315462349	-0.45	inactive
108	ZNF420 (zinc finger protein 420)	SID315462349	-0.12	inactive
109	GAA (alpha glucosidase)	SID315448791	1.05	inactive
110	GAA (alpha glucosidase)	SID315448791	-0.13	inactive
111	GAA (alpha glucosidase)	SID315448791	-0.14	inactive
112	GAA (alpha glucosidase)	SID315448791	0.07	inactive
